± gives the standard error. Many entries were measured with a wide error.
B1: glmS ribozyme (parent)
chain: AUAAAAGCGCCAGAACUACAGAAAUGUAGUUGACGAGGAGGAGGUUUAUCGAAUUUUCGGCGGAUGCCUCCAAA

Variants of: B1
Test: self-cleavage kobs at 40 uM GlcN6P; higher = faster cleavage; RNA array
Settings: with glucosamine-6-phosphate
In short: (§1)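 Barcoded ribozyme variants, transcribed in situ by E. coli RNA polymerase on sequenced MiSeq chips, were followed via a hybridised Cy3 probe at 37 °C. Glucosamine-6-phosphate ranged from 40 μM to 10 mM in HEPES/KCl/Mg(OAc)2 buffer. kobs came from decay fits to per-tile medians, and kcat and KM from weighted Michaelis–Menten fits.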

Variant	self-cleavage kobs at 40 uM GlcN6P [s⁻¹]
AUAAAGGCGCCAGGACUACAGAAAUGUAGUUGACGAGGAGGAGGUUUAUCGAAUUUUCGGCGGAUGCCUCCAAA	1.35e-05 ± 1.2e-05
AUAAAGGCGCUAGAACUACAGAAAUGUAGUCGACGAGGAGGAGGUUUAUCGAAUUAUCGGCGGAUGCCGCCAAA	2.63e-05 ± 2.3e-05
AUAAAGGCGCCAGAACUACAGAAAUGUAGGUGACGAGGAGGAGGUUUAUGGAAUUUUCGGCGGUUGCCUCCAAA	4.35e-05 ± 2.8e-05
AUAAAUGCGGCAGAACUACAGAAAUGUAGUUGACGAGGAGGAGGUUUAUCGAAUUUUCGGCUGAUGGCUCGAAA	4.02e-05 ± 2.5e-05
AUAAAAAGCGCCAGAACACAGAAAUGUAGUUGACGAGGAGGAGGUUUAUCGAAUUUUCGGCGGAUGGCUCCAAA	2.42e-05 ± 1.9e-05
AUAAAAUCGCCACAACUACAGAAAUGUAGUUGACGAGGAGGAGGUUUAUCGAAUUUUCGGCGGAUGCCUGCAAA	3.57e-05 ± 2.8e-05
AUAAAAGAGCCAGAACUACAGAAAUGUAGUUGACGAGGAGGAGGUUUAUCGAAUUUUCGGCGUAUGCCACCAAA	3.53e-05 ± 3e-05
AUAAAAGAGCCAGAACUACAGAAAUGUAGCUGACGAGAAGGAGGUUAAUCGAAUUUUCGGCGGAUGCCACCAAA	7.01e-05 ± 3.7e-05
AUAAAAGUGCCAGAAUUACAGAAAUGUAGUUGACGAUGAGGAGGUUUAUCGAAGUUUCGGCGGAUGCAUCCAAA	6.82e-05 ± 3.5e-05
AUAAAAGUGCCAGAACUACAGAAAUGUAGUUGACGAGGAGGAGGUUUAUCGAAUUUUCGGAGGAUGCUUCCAAA	3.32e-05 ± 2.7e-05
AUAAAAGUGCCAGAACUACAGAAAUGUAGUUUACGAGGAGGAGGUUUAUGGAAUUUUCGGCGGAUGCCUCCAAA	4.27e-05 ± 2.4e-05
AUAAAAGCACCAGAACUACAGAAAUGUAGUUGCCGAGGAGGAGGUUUAUGGGAUUUUCUGCGGAUGCCUCAAAA	4.2e-05 ± 3.3e-05
AUAAAAGCCCCAGAACUACAGAAAUGUAGUUGACGAGGAGGAGGUUUAUGGAAUUUUCGGCGGAUGCCUCCAAA	0.000491 ± 0.00026
AUAAAAGCGACAGAAGUACAGAAAUGUAGUUGACGAGGAGGAGGUUUAUAGAAUUUUGGGUGGAUGCCUCCAAA	3.7e-05 ± 2.1e-05
AUAAAAGCGCAAGAACUACAGAAAUGUAGUUGACGAGGAGGAGGUUUAUCGAAUUUUCGGCGGAUGCCCCCAAA	2.92e-05 ± 2.6e-05
AUAAAAGCGCGAGAACUACAGAAAUGUAGUUGACGGGGAGGAGGUUUAUCGGAUUUUCGGCGGAUGCCUACAAA	3.6e-05 ± 1.9e-05
AUAAAAGCGCGAGAACUACAGAAAUGUAGUUGACGAGGAGGAGGUUUAUCGAAUUUUCGGCGGAUGCCUGCAAA	1.74e-05 ± 1.5e-05
AUAAAAGCGCUAGAACUACAGAAAUGUAGUUGACGAGGAGGAGGUUUAUCGAAUUUUCGGCGGAUGCCUGUAAA	1.95e-05 ± 1.9e-05
AUAAAAGCGCUAGAACUACAGAAAUGUACUUGACGAGGAGGAGGUUUAUGGAAUUUUCGGCGGAUGCGUCCAAA	2.13e-05 ± 1.3e-05
AUAAAAGCGCUAGAACUACAGAAAUGUAGUUGACUAGGAGGAGGUUUAUCGAAUUUUCGGCGGAUGCCACCAAA	2.43e-05 ± 1.9e-05
AUAAAAGCGCCAGGACUACAGAAAUGUAGUUGACGAGGAGGAGGUUUAUCGAAUUUUCGGCGGAUGCCUUGAAA	1.28e-05 ± 1.2e-05
AUAAAAGCGCCAGUACUACAGAAAUGUAGUUGACGAGGAGGAGGUUUAAGGAAUUUUCGGAGGAUGCCUCCAAA	4.14e-05 ± 3e-05
AUAAAAGCGCCAGAGCUACAGAAAUGUAGUUGACGAGGAGGAGGUUUAUCGGAUUUUCGGCGGAUGCCUCCAAA	2.18e-05 ± 1.7e-05
AUAAAAGCGCCAGAGCUACAGAAAUGUAGUUGACGAGGAGGAGGUUUAUCGGAUUUUCGGCGGAUGUCUCGAAA	3.07e-05 ± 2.3e-05
AUAAAAGCGCCAGAGCUACAGAAAUGUAGUUGACGAGGAGGAGGUUUAUCGAAUUUUGGGCGGAUGCUUCCAAA	5.22e-05 ± 3.3e-05
AUAAAAGCGCCAGAAAUACAGAAAUGUAGUUGACGAGGUGGAGGUUUAUCGAAUUUUCGGCGGAUGCCUCCAAA	1.42e-05 ± 9.9e-06
AUAAAAGCGCCAGAAAUACAGAAAUGUAGUUGACGAGGAGGAGGUUUAUCGAAUUUUCGGCGGAUGUCUCCAAA	2.35e-05 ± 1.6e-05
AUAAAAGCGCCAGAAAUACAGAAAUGUAGUUGACGAGUAGGAGGUUUAUCGAAUUUUCGGCGGAUGGCUCCAAA	3.59e-05 ± 2.6e-05
AUAAAAGCGCCAGAACUACAGAAAUUUAGUUGACGAGGAGGAGGUUUAUCGAAUUUUCGGCGGAUGCCACCAAA	3.92e-05 ± 2e-05
AUAAAAGCGCCAGAACUACAGAAAUGUAAUUGACGAGGAGGAGGUUUAUCGGAUUUUCGGCGGAUGGCUCCAAA	3.69e-05 ± 2e-05

Exported comma-delimited: part of the list above.
Variant,self-cleavage kobs at 40 uM GlcN6P [s⁻¹]
AUAAAGGCGCUAGAACUACAGAAAUGUAGUCGACGAGGAGGAGGUUUAUCGAAUUAUCGGCGGAUGCCGCCAAA,2.63e-05 ± 2.3e-05
AUAAAAGCGCUAGAACUACAGAAAUGUAGUUGACUAGGAGGAGGUUUAUCGAAUUUUCGGCGGAUGCCACCAAA,2.43e-05 ± 1.9e-05

Variants of: B1
Test: self-cleavage kobs at 2500 uM GlcN6P; higher = faster cleavage; RNA array
Settings: with glucosamine-6-phosphate
In short: as §1

Variant	self-cleavage kobs at 2500 uM GlcN6P [s⁻¹]
AUAAAAGCCCCAGAACUACAGAAAUGUAGUUGACGAGGAGGAGGUUUAUGGAAUUUUCGGCGGAUGCCUCCAAA	2.24e-05 ± 1.8e-05
AUAAAAGCGCUAGAACUACAGAAAUGUAGUUGACGAGGAGGAGGUUUAUCGAAUUUUCGGCGGAUGCCUGUAAA	3.68e-05 ± 1.9e-05

Variants of: B1
Test: self-cleavage kobs at 10000 uM GlcN6P; higher = faster cleavage; RNA array
Settings: with glucosamine-6-phosphate
In short: as §1

Variant	self-cleavage kobs at 10000 uM GlcN6P [s⁻¹]
AUAAAAGCCCCAGAACUACAGAAAUGUAGUUGACGAGGAGGAGGUUUAUGGAAUUUUCGGCGGAUGCCUCCAAA	0.00164 ± 0.0015
AUAAAAGCGACAGAAGUACAGAAAUGUAGUUGACGAGGAGGAGGUUUAUAGAAUUUUGGGUGGAUGCCUCCAAA	2.69e-05 ± 1.7e-05
AUAAAAGCGCUAGAACUACAGAAAUGUAGUUGACUAGGAGGAGGUUUAUCGAAUUUUCGGCGGAUGCCACCAAA	3.07e-05 ± 1.6e-05
AUAAAAGCGCCAGAAAUACAGAAAUGUAGUUGACGAGUAGGAGGUUUAUCGAAUUUUCGGCGGAUGGCUCCAAA	2.29e-05 ± 2.2e-05

Variants of: B1
Test: self-cleavage kobs at 160 uM GlcN6P; higher = faster cleavage; RNA array
Settings: with glucosamine-6-phosphate
In short: as §1

Variant	self-cleavage kobs at 160 uM GlcN6P [s⁻¹]
AUAAAAGCGCGAGAACUACAGAAAUGUAGUUGACGAGGAGGAGGUUUAUCGAAUUUUCGGCGGAUGCCUGCAAA	0.000175 ± 0.00011

Reference: the supplement of paper PMC7125110
